Results reported in PubChem BioAssay AID504408 (Broad Institute, 2011).
Among all 300,000 compounds or so, about 5,200 (1.7%) were called active. The inconclusive results got no clear call from the source; some entries with a clear call stand among them for comparison.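 Rule for the calls: active = mean replicate activation of at least 50% with a set share of replicates each reaching 50%; inconclusive = only one of those two conditions met; inactive = mean below 50% and too few replicates reaching it.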

test: HSF-1 activators, primary screen, NIH3T3-HGL cells, MG132 stress, luminescence, single point (AID 504408); details: NIH3T3-HGL HSF-1 luciferase reporter, MG132, 8 h; at 9 µM; active compounds read high; 100% = twice DMSO control signal;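 note: 0% = median of the neutral control wells and 100% = twice that signal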

Compound | activation
CCOc1ccc(-c2nnc3ccc(SC(C)C)nn23)cc1 | inactive: 7.31%
CC(CC#CCN1CCOCC1)OCCC#N (centres undefined) | inconclusive: 64.5%
O=C1N(c2ccccc2)CCN1c1ccccc1 | inconclusive: 59.8%
NCC(=O)Nc1ccc(Cl)cc1C(=O)c1ccc[nH]1 | inactive: 8.53%
Cc1ccsc1C(=O)Nc1ccc(OCc2ccccc2)cc1 | inconclusive: 51.7%
N#Cc1cc(-c2ccccc2)cnc1Sc1ccccc1 | inconclusive: 51.7%
Cc1ccc(-n2nnnc2CNC(=O)c2ccc([N+](=O)[O-])o2)cc1C | inconclusive: 52.3%
N#Cc1ccc(C2N=C(c3ccccc3)NO2)cc1 (centres undefined) | active: 56.2%
COC(=O)c1ccc(COc2cccc(OC)c2)o1 | inconclusive: 52.3%
COc1ccc(N(C)C(=O)c2cc3c(s2)-c2ccc(Cl)cc2S(=O)(=O)C3)c(OC)c1 | inactive: 8.95%
COc1ccc(NC(=S)NC2CC3CCC(C2)N3Cc2ccco2)cc1 (centres undefined) | inconclusive: 50.1%
CCOC(=O)c1snc(-c2ccc(F)cc2)c1N | active: 58.7%
Nc1c(C(=O)NCc2ccccc2)sc2nc(N3CCOCC3)c3c(c12)CCCC3 | inactive: 5.25%
Cc1ccc(C(=O)O)cc1NC(=S)NC(=O)C(c1ccccc1)c1ccccc1 | inactive: -6.76%
O=C(CSc1nnc(CNC(=O)c2ccco2)o1)Nc1ccccc1C(F)(F)F | inactive: 3.9%
COc1ccc2c(c1)CCC/C2=N\NC(=O)c1ccoc1C | inconclusive: 54.1%
FC(F)(F)c1cnc(Sc2nc3nccc(-c4ccc(Cl)cc4)n3n2)c(Cl)c1 | inconclusive: 53.9%
CCOc1ccc(C)cc1S(=O)(=O)NC1CCCCC1 | active: 61.1%
CCCCN1C(=O)C2Cc3c([nH]c4ccccc34)CN2C1=S (centres undefined) | inconclusive: 53.2%
O=C(NNC(=O)c1cccc2ccccc12)c1ccccc1O | inactive: -12.4%
CC1CCN(c2ccc(NC(=O)c3ccc(Br)o3)cc2)CC1 | active: 53.2%
COc1cc(/C=C2\SC(=S)N(CCC(=O)Nc3ccccc3O)C2=O)cc(OC)c1OC | inconclusive: 53%
COC(=O)[C@@H]1C[C@H]2CC[C@H](O)C[C@H]2N1Cc1ccc(C)s1 | inactive: -15.8%
O=C(NCCc1ccncc1)Nc1ccc(Cl)c(Cl)c1 | inconclusive: 63.7%

Compound | activation
COc1ccc(OC)c(NC(=O)Cn2cnc3c(cnn3-c3ccccc3)c2=O)c1 | inconclusive: 51.7%
CCCc1[nH]nc2c1C(c1cc(OC)ccc1F)C(C#N)=C(N)O2 (centres undefined) | active: 74.1%
Cc1cc2nc(-c3ccc(SCC(=O)Nc4ccc(S(=O)(=O)NC5CC5)cc4)nc3)[nH]c2cc1C | active: 54.1%
CCN(Cc1ccccc1)S(=O)(=O)c1cc(C(=O)NCC2CCCCC2)ccc1OC | inconclusive: 87.7%
CCCOc1ccc(C(=O)NCCc2ccccc2)cc1 | inconclusive: 50.8%
O=C1C=C(NCCc2cc(Br)c(O)c(Br)c2)C(=O)c2ncccc21 | inconclusive: 47.8%
Cc1ccc(-c2csc(NC3OC(=O)c4ccccc43)n2)cc1 (centres undefined) | active: 81.1%
CCN1C(=O)c2cccc3c(S(=O)(=O)Nc4ccccn4)ccc1c23 | inactive: 11.5%
CCC(=NC(C)c1ccccc1)c1c(O)n(C)c(=O)n(C)c1=O (centres undefined) | inconclusive: 54.6%
Cc1ccsc1/C=C1/SC(N2CCOCC2)=NC1=O | inconclusive: 54%
COc1ccc2cc(C(=O)N3CCc4ccccc43)[nH]c2c1 | active: 52.2%
O=C(CSc1ncnc2c1nnn2Cc1ccc(F)cc1)NC1CCCC1 | inconclusive: 52.6%
O=C(CN1CCOCC1)N(c1ccccc1)c1ccc2ccccc2c1 | inconclusive: 51%
Cc1ccc(-c2nnc(SCC(C)C)n2C)cc1 | inactive: 27.2%
Cc1ccc(/C=C/C(=O)N2CCCC(C)C2)cc1 (centres undefined) | active: 64.9%
Cc1ccc2cc(C(c3nnnn3CC3CCCO3)N3CCc4ccccc4C3)c(=O)[nH]c2c1 (centres undefined) | inactive: 1.51%
Cc1ccccc1NC(=O)C1COc2ccccc2O1 (centres undefined) | inconclusive: 50.7%
O=C(COc1ccc2cc(-c3ccccc3)c(=O)oc2c1)NCC1CCC(C(=O)O)CC1 (centres undefined) | inactive: 1.44%
COc1ccc(/C=N/N2CCN(C3c4ccccc4-c4ccccc43)CC2)cc1O | inconclusive: 58.5%
NS(=O)(=O)c1ccc(NC(=O)c2ccc(CNS(=O)(=O)c3cc(C(F)(F)F)ccc3Cl)cc2)cc1 | inactive: 2.27%
COc1ccc(C2=NN(CN3C(=O)C(=O)c4ccccc43)C(c3ccc(OC)cc3)C2)cc1 (centres undefined) | inconclusive: 51.4%
COc1ccc(/C=C/C(=O)c2ccc3c(c2)OCO3)c(OC)c1 | inconclusive: 50.2%
O=C(CSc1cccs1)Nc1cccc2ccccc12 | active: 62.7%
O=C(CN(C(=O)c1csnn1)c1ccc(F)c(Cl)c1)NCc1ccc(F)cc1 | active: 71.9%

Compound | activation
Cc1ccc(=O)n(C(C(=O)NCc2ccco2)C(=O)c2ccc(F)cc2)c1 (centres undefined) | inconclusive: 51.7%
CC(Nc1cc(N2CCNCC2)ccc1[N+](=O)[O-])c1ccccc1 (centres undefined) | inconclusive: 50.7%
COc1ccc(NC(=S)c2ccc(N(C)C)cc2)cc1 | inconclusive: 53.3%
CCCc1cc(C(=O)Nc2cccc([N+](=O)[O-])c2)cs1 | inconclusive: 54.1%
O=C(N/N=C/c1sc(N2CCOCC2)nc1-c1ccccc1)c1ccc(O)cc1 | inconclusive: 56.9%
NC(=O)c1c(NC(=O)c2cccnc2Cl)sc2c1CCCC2 | inactive: 5.12%
CC(=O)OCCCN1c2ccccc2Nc2nnc(-c3ccccc3)cc21 | inconclusive: 61.7%
CN1CCc2nc(SCCOc3ccccc3)c(C#N)cc2C1 | inconclusive: 52.1%
O=C(CNc1ccccc1)Nc1ccc(F)cc1 | inconclusive: 51.5%
O=C(Nc1nnc(CCc2ccccc2)s1)c1cccc(F)c1 | inactive: 23.1%
Cc1c(C(=O)Nc2ccc3c(c2)CCC3)cccc1[N+](=O)[O-] | active: 57.4%
CC(=O)Nc1ccc(-c2nc3ccc(NC(C)=O)cc3o2)cc1 | inconclusive: 51.7%
CNCCCOc1ccc(Cl)cc1C(C)(C)C | inactive: -4.18%
O=C(OCc1csc(-c2ccccc2)n1)c1cccs1 | active: 91.4%
Cc1ccc(S(=O)(=O)N2CCCCC2)cc1NC(=O)Cn1cnnn1 | inconclusive: 50.3%
COc1cc(/C=C/C(=O)c2ccc3c(c2)OCO3)cc(Cl)c1O | inconclusive: 50.7%
Cc1[nH]c2ccccc2c1/C=C(\C#N)C(=O)NCC1CCCO1 (centres undefined) | inconclusive: 50.9%
COC(C(=O)N/N=C(\C)CC(=O)Nc1ccc(Cl)cc1C)c1ccccc1 (centres undefined) | active: 122%
Cc1cc(Cl)c(S(=O)(=O)N2CCSCC2)cc1OCC(=O)NC1CCCCC1 | inactive: 9.72%
COc1ccc(CCNC(=O)c2coc3ccccc3c2=O)cc1OC | inconclusive: 54.3%
Clc1ccc(CSc2ccc(-c3ccco3)nn2)cc1 | inconclusive: 51.4%
COc1ccc(OC)c(-c2csc(NC(=O)C3=NN(c4ccccc4)C(=O)CC3)n2)c1 | inconclusive: 50%
Cc1ccc(-c2csc(N3CCN(c4ccc5nc(-c6ccncc6)n(CCN6CCCCC6)c5c4)CC3)n2)cc1 | inactive: -9.08%
O=C(CSc1nnnn1C1CCCC1)N1CCOCC1 | inactive: -18.9%

5 consecutive records from above, quoted:
Compound | activation
Cc1cc(Cl)c(S(=O)(=O)N2CCSCC2)cc1OCC(=O)NC1CCCCC1 | inactive: 9.72%
COc1ccc(CCNC(=O)c2coc3ccccc3c2=O)cc1OC | inconclusive: 54.3%
Clc1ccc(CSc2ccc(-c3ccco3)nn2)cc1 | inconclusive: 51.4%
COc1ccc(OC)c(-c2csc(NC(=O)C3=NN(c4ccccc4)C(=O)CC3)n2)c1 | inconclusive: 50%
Cc1ccc(-c2csc(N3CCN(c4ccc5nc(-c6ccncc6)n(CCN6CCCCC6)c5c4)CC3)n2)cc1 | inactive: -9.08%

(list continues)

Compound | activation
O=[N+]([O-])c1cccc(-c2nnc(CNC3CC3)o2)c1 | inconclusive: 52.5%
CCC1CCCCN1CCN1C(=O)C2C(C(=O)Nc3ccc(OC)cc3)C3C=CC2(O3)C1C(=O)NC1CCCCC1 (centres undefined) | inactive: 5.97%
O=C(Nc1ccc(Br)cn1)c1ccc(Cl)s1 | inconclusive: 52.7%
CS(=O)(=O)N(CC(=O)NCC1CCCO1)c1cc(Cl)ccc1Cl (centres undefined) | active: 54.3%
OCCCN=c1cc(-c2ccccc2)oc2ccc(Cl)cc12 | inconclusive: 56%
O=C(Nc1ccccc1)c1ccc(CSc2ccccn2)cc1 | inconclusive: 50.3%
COc1ccc(CCNCc2c(-c3ccccc3)n(C)c3ccccc23)cc1 | inconclusive: 53.2%
CC(=O)NCCc1csc(-c2ccccc2)n1 | inactive: -6.14%
CCN(CC)c1ccc(NC(=O)c2cccnc2)cc1 | inconclusive: 50.2%
CC(=O)c1nn(-c2cccc(C)c2)cc1C(=O)c1cccc(Br)c1 | inactive: -4.55%
CCC(C)Sc1nc2c([nH]c3ccccc32)c(=O)n1C (centres undefined) | inconclusive: 53.4%
O=C(CSCc1ccco1)N1CCc2ccccc21 | inconclusive: 52.3%
CCOC(=O)c1[nH]c2ccc(OC)cc2c1NS(=O)(=O)c1ccc(Cl)s1 | inactive: -26.6%
Cc1nn(C)c(C)c1CN(Cc1nc(CCC(C)C)no1)C(C)C | inactive: -12%
COc1ccc(S(=O)(=O)n2nc(OC(=O)c3ccccc3Br)cc2N)cc1 | inconclusive: 104%
COc1ccc(CNC(=O)CCC(=O)N2CC(C)Oc3ccccc32)cc1 (centres undefined) | inconclusive: 50.4%
O=C(NNc1ccc([N+](=O)[O-])cc1)Nc1ccccc1 | inconclusive: 52%
CC(=O)c1c(C)[nH]c(C(=O)COC(=O)C2CC2)c1C | inactive: 3.14%
CCCCCCC1CCC(C(=O)NC(CCSC)C(=O)NC(C(=O)OC)C(C)C)CC1 (centres undefined) | inconclusive: 57.9%
COc1ccc(CNC(=O)C2CCCN2S(=O)(=O)c2ccc(S(=O)(=O)N(C)C)cc2)cc1 (centres undefined) | inactive: -5.2%
CCS(=O)(=O)N1Cc2ccccc2CC1C(=O)Nc1ccc(C)cc1 (centres undefined) | inactive: 15%
CCOC(=O)c1ccc(Nc2cnc3ccccc3n2)cc1 | active: 55.8%

Pulled by structure from the list above, two records:
Compound | activation
Cc1ccc(-c2csc(N3CCN(c4ccc5nc(-c6ccncc6)n(CCN6CCCCC6)c5c4)CC3)n2)cc1 | inactive: -9.08%
CCC(C)Sc1nc2c([nH]c3ccccc32)c(=O)n1C (centres undefined) | inconclusive: 53.4%
